This passage reports binding results from PMC5686115.

Chains of the proteins cited; added tags and fusions are not shown. Lines headed by an entry give the natural chain unless they say otherwise; changes in a name come on top. A line that says so, or that is headed by a name, gives the form on record, which may keep a tag or linker.
EGFP-IP3R1 (endogenous inositol 1,4,5-trisphosphate receptor type 1 tagged with monomeric EGFP by gene editing) (Q14643, form named): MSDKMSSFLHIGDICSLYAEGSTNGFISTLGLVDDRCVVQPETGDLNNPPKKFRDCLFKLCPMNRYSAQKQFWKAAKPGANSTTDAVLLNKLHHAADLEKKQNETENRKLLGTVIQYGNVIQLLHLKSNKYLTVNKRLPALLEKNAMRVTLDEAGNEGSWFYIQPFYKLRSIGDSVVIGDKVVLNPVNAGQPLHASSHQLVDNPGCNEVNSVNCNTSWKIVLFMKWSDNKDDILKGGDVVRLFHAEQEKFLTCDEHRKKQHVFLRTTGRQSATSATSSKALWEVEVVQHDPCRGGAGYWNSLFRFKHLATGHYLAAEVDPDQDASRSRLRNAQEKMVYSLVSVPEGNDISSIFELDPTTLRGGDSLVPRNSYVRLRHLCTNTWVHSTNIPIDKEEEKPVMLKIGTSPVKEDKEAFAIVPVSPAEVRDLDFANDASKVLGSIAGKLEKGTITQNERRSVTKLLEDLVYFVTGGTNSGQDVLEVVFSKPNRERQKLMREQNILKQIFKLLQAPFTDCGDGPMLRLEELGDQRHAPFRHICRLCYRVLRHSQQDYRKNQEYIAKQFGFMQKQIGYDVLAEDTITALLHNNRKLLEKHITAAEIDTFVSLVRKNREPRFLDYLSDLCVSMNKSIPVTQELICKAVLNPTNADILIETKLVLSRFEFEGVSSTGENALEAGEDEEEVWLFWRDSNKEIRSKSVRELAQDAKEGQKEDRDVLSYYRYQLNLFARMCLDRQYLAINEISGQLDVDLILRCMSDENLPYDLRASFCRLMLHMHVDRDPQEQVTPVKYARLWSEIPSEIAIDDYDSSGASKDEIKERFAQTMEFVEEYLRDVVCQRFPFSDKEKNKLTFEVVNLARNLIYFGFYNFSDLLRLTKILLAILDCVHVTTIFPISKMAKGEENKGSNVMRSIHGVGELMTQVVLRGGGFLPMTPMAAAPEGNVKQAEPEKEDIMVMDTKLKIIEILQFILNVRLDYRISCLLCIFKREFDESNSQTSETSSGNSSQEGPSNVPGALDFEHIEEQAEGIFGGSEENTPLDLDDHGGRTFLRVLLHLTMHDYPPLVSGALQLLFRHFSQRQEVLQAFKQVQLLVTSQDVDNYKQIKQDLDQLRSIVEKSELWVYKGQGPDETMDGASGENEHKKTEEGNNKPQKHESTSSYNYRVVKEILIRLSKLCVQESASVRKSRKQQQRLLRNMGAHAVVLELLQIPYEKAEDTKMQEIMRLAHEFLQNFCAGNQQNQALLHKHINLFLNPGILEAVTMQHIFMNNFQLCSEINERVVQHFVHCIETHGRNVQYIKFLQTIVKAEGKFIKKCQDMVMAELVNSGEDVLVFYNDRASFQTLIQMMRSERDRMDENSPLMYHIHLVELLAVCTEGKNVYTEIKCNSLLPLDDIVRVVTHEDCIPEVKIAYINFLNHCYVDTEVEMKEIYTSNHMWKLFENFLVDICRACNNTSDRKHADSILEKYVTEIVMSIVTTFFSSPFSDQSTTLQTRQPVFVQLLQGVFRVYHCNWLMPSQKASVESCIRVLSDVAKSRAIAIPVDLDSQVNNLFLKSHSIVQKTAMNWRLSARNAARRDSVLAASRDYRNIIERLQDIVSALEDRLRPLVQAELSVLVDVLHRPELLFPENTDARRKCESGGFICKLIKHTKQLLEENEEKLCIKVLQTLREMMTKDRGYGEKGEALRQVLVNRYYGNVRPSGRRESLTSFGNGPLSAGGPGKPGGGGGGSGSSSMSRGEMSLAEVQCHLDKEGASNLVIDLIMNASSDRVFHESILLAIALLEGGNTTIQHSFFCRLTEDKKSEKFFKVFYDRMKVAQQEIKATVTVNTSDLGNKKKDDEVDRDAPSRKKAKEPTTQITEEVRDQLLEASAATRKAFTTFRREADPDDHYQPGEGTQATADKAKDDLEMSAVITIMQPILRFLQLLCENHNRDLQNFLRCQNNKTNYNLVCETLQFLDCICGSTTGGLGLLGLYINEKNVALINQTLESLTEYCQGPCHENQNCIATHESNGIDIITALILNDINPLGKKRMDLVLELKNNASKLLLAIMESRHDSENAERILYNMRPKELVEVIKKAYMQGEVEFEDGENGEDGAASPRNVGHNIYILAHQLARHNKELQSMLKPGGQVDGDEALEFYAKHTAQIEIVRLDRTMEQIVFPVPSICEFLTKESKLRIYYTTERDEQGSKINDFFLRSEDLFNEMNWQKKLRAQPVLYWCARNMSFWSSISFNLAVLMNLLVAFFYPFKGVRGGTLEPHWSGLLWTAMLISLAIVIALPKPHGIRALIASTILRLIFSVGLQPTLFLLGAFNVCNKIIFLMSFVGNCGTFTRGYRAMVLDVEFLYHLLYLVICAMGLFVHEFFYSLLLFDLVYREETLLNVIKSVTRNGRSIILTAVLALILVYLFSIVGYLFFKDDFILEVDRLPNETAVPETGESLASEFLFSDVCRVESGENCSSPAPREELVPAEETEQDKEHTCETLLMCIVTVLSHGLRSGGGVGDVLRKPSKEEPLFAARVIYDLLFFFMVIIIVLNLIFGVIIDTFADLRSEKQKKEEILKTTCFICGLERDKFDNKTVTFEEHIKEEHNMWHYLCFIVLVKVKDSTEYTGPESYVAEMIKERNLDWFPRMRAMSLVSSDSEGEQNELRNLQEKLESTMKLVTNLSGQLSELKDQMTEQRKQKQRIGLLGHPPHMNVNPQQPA
UniProt Q14571: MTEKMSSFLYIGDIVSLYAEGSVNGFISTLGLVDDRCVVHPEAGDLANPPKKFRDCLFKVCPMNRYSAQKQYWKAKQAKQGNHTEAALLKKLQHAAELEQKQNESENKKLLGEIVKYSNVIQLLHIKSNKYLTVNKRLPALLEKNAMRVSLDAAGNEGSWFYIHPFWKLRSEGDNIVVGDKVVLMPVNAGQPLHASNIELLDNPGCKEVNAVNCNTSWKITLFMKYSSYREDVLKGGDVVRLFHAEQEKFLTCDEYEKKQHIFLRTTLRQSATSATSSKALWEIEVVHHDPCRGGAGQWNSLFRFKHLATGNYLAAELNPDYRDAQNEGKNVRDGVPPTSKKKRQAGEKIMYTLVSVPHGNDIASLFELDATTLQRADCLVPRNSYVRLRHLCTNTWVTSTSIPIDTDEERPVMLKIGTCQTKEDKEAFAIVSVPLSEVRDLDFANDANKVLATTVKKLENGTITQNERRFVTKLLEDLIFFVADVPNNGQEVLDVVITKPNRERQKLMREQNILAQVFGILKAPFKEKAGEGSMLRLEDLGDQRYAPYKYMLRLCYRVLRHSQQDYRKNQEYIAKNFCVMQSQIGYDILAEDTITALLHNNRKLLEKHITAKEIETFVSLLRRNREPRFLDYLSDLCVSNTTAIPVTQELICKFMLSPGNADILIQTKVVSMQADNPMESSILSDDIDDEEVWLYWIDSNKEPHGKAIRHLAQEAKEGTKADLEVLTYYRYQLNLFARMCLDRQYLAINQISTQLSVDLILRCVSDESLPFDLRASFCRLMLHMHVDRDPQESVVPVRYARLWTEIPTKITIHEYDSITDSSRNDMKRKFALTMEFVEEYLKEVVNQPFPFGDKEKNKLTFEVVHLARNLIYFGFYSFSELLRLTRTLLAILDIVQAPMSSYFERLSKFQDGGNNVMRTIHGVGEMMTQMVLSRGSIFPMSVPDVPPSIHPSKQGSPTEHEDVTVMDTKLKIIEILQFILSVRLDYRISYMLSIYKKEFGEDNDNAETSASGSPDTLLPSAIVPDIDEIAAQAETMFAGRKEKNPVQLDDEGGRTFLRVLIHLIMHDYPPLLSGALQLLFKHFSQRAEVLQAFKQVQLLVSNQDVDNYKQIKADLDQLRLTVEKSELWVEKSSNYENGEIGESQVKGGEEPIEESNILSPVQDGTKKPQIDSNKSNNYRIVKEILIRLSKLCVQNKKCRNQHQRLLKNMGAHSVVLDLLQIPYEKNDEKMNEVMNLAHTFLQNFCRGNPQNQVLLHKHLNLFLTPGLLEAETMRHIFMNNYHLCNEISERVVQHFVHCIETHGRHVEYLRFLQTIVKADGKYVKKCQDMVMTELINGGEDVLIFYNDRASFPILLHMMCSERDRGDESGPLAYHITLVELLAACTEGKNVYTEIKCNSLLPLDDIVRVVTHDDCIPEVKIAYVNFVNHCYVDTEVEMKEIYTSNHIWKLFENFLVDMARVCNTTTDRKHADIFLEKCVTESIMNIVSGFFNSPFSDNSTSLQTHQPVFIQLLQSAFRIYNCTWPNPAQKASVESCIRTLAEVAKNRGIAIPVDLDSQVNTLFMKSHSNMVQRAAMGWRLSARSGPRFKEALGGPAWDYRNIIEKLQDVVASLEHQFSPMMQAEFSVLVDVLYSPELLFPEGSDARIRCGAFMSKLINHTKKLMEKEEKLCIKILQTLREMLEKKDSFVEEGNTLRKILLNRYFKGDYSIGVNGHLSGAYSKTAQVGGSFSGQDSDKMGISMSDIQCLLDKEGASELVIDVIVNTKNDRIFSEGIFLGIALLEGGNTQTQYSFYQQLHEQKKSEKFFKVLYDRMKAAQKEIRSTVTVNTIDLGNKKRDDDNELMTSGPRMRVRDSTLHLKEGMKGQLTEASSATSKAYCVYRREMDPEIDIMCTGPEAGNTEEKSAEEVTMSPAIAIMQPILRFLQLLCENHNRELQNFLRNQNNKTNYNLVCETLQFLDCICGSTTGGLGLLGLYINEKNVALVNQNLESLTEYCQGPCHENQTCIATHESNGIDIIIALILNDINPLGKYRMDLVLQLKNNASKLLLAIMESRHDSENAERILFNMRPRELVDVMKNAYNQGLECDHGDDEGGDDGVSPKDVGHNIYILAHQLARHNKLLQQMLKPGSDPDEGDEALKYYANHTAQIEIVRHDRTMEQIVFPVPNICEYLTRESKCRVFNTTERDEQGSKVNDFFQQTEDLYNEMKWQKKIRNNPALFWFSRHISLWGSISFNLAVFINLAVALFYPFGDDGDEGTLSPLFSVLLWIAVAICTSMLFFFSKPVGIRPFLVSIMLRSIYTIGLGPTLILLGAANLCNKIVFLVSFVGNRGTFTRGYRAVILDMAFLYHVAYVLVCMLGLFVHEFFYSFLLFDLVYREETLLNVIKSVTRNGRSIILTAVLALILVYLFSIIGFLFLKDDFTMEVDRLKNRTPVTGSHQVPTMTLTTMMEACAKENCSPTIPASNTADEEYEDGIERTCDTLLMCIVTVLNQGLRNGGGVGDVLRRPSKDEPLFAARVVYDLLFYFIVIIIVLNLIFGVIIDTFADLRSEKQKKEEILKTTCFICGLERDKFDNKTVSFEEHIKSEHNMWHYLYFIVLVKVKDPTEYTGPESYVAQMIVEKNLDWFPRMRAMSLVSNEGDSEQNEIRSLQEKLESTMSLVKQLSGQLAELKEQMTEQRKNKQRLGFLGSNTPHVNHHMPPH

This assay deals with EGFP-IP3R1 (endogenous inositol 1,4,5-trisphosphate receptor type 1 tagged with monomeric EGFP by gene editing) (human) (UniProt Q14643). Description: co-IP; GFP-Trap (anti-GFP VHH) magnetic beads with lysate supernatant of EGFP-IP3R1 HeLa cells (1% Triton X-100 lysis medium), 2 h at 4 °C; washed in 150 mM NaCl, 0.5 mM EDTA, 10 mM Tris pH 7.5; Western blot. (In western blotting, separated proteins are transferred to a membrane and probed.)

These are yes or no findings as the source states them, for the method shown. In cells and extracts the contact can be indirect. Some binding calls cover weakened binding; strength is not graded here.

For “IP3R2 (endogenous inositol 1,4,5-trisphosphate receptor type 2) (from UniProt Q14571 1-2701)”, the binding entry is listed as “binds”.

For “IP3R3 (endogenous inositol 1,4,5-trisphosphate receptor type 3) (from UniProt Q14573 1-2671)”, the binding entry is “binds”.
